Structures can show the parent of a compound that is named as a salt. The list shows a part of the results. Hit calls seldom repeat between salt and free forms of one compound.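 In K562 cells expressing nanoluciferase-fused kinases, luminescence was recorded at 4 h intervals between 2 and 18 h, normalized as percent of control with DMSO at 100% and a positive control at 0%. A significant (2 sigma) signal drop marks a time point as decreased. The authors' rule for a hit is not shown and takes in more than the number of time points.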
molecular target: CDK3 (UniProt Q00526); experiment: kinase-Nluc reporter destabilization hit call (1 = scored as downregulated) (binary); higher = compound decreases kinase abundance; conditions: K562; 2-18 h

Protein sequences, listed by entry. Tags and fused reporters are not part of them. Lines headed by an entry give the natural chain unless they say otherwise; changes in a name come on top.
UniProt Q00526: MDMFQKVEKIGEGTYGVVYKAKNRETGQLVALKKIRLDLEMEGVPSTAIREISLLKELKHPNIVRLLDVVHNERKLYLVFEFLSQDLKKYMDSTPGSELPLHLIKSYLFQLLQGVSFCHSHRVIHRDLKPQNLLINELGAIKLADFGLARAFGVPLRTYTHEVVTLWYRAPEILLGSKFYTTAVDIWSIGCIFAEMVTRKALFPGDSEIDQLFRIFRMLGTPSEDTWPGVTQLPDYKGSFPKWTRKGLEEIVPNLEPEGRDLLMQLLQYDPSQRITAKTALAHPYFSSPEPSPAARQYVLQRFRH
UniProt P11802: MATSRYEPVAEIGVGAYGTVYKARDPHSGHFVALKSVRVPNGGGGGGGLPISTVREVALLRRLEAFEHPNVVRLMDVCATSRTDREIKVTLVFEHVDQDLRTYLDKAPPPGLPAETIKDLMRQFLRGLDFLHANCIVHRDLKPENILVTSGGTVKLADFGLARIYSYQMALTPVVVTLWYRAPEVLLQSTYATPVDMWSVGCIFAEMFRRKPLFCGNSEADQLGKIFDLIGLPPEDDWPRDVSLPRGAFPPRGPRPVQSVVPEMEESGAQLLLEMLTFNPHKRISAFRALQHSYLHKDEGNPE

SMILES | kinase-Nluc reporter destabilization hit call
CCCCNc1nc(N)c2[nH]c(=O)n(Cc3ccc(C)nc3)c2n1 (10 µM) | inactive: 0
N#CC(C#N)=Cc1ccc([N+](=O)[O-])c(O)c1 (10 µM) | inactive: 0
O=c1[nH]c2ccccc2n1C1CCN(Cc2ccc(-c3[nH]c4cc5ncnc5cc4nc3-c3ccccc3)cc2)CC1 [AKT inhibitor VIII] (2.5 µM) | inactive: 0
CC(=O)Oc1ccc(/C=C/c2cc(OC(C)=O)cc(OC(C)=O)c2)cc1 [Triacetylresveratrol] (10 µM) | inactive: 0
O=C1c2ccccc2C(=O)c2c1cccc2-c1cnn(C2CCNCC2)c1 [PDK4-IN-1 (hydrochloride)] (10 µM) | inactive: 0
CC1C(=O)OC2C(O)C34C5OC(=O)C3(OC3OC(=O)C(O)C34C(C(C)(C)C)C5O)C12O (stereo unspecified) [Ginkgolide C] (10 µM) | inactive: 0
O=Cc1cn(Cc2ccc(Cl)cc2)c2ccccc12 [Oncrasin-1] (10 µM) | inactive: 0
N#CC(C#N)=NNc1cccc(Cl)c1 (2.5 µM) | inactive: 0
CC(C)=CC[C@@H](OC(=O)CC(C)(C)O)C1=CC(=O)c2c(O)ccc(O)c2C1=O [β-Hydroxyisovalerylshikonin] (2.5 µM) | inactive: 0
O=c1ccc2cc(O[C@@H]3O[C@H](CO)[C@@H](O)[C@H](O)[C@H]3O)c(O)cc2o1 [Esculin] (10 µM) | inactive: 0
C[C@H]1CC[C@]2(NC1)O[C@H]1C[C@H]3[C@@H]4CC[C@H]5C[C@@H](O)CC[C@]5(C)[C@H]4CC[C@]3(C)[C@H]1[C@@H]2C [Tomatidine] (2 µM) | inactive: 0
C/C(O)=C(\C#N)C(=O)Nc1cc(Br)ccc1Br (10 µM) | inactive: 0
COc1ccc2c(c[n+](C)c3c4cc5c(cc4ccc23)OCO5)c1OC [Chelerythrine (chloride)] (10 µM) | inactive: 0
COc1ccc2c(c1)[nH]c1c(C)nccc12 [Harmine] (10 µM) | inactive: 0
CCCCCCCCCCCCCCCCOC[C@H](COP(=O)([O-])OCC[N+](C)(C)C)OC(C)=O (10 µM) | inactive: 0
O=C(O)c1sc2cc(Cl)ccc2c1Cl (10 µM) | inactive: 0
C[S+]([O-])/C=C/CCN=C=S (stereo unspecified) [Sulforaphene] (10 µM) | inactive: 0
Cn1cc(C2=C(c3cn(C4CCN(Cc5ccccn5)CC4)c4ccccc34)C(=O)NC2=O)c2ccccc21 [Enzastaurin] (10 µM) | inactive: 0
CCN1CCN(C(=O)Cc2ccc(Nc3ncc(F)c(Nc4ccc(C(=O)Nc5ccccc5Cl)cc4)n3)cc2)CC1 (2.5 µM) | inactive: 0
Cc1n[nH]cc1-c1cc2nc([C@@H]3CC4CCN3CC4)[nH]c(=O)c2s1 [Simurosertib] (2.5 µM) | inactive: 0
O=C(N[C@@H](COc1ccc2[nH]c(=O)[nH]c2c1)c1ccccc1)c1cccn(Cc2ccc(F)c(F)c2)c1=O (2.5 µM) | inactive: 0
CCOC(=O)c1c(/C(C#N)=C\N)c2ccc(Cl)c(Cl)c2n1C (10 µM) | inactive: 0
C[C@H](CCC(=O)O)C[C@H](C)C[C@H](C)C(=O)/C=C(\O)[C@H](C)C[C@H](C)C/C=C/[C@@H](C)[C@@H](O)[C@@H](C)[C@@H](O)C[C@@H]1CC[C@@](C)([C@H]2CC[C@@](C)([C@@H](C)O)O2)O1 [Ionomycin (calcium)] (2.5 µM) | inactive: 0
CC(C)(C)c1cc(C=C(C#N)C#N)cc(Br)c1O (2.5 µM) | inactive: 0
C=CC(=O)N[C@H]1C=C(C)c2c(-c3cnc4ccccc4c3)c3c(N)ncnc3n2C1 (10 µM) | inactive: 0
COC[C@H]1OC(=O)c2coc3c2[C@@]1(C)C1=C(C3=O)[C@@H]2CCC(=O)[C@@]2(C)C[C@H]1OC(C)=O [Wortmannin] (2.5 µM) | inactive: 0
CC(=O)c1c(O)c(C)c(O)c(Cc2c(O)c3c(c(C(=O)/C=C/c4ccccc4)c2O)OC(C)(C)C=C3)c1O [Rottlerin] (2 µM) | inactive: 0
NCCc1cn(S(=O)(=O)c2c(Cl)nc3sccn23)c2ccccc12 (10 µM) | inactive: 0

molecular target: CDK4 (UniProt P11802); experiment: as above; conditions: K562; 2-18 h

SMILES | kinase-Nluc reporter destabilization hit call
CCCCNc1nc(N)c2[nH]c(=O)n(Cc3ccc(C)nc3)c2n1 (10 µM) | inactive: 0
N#CC(C#N)=Cc1ccc([N+](=O)[O-])c(O)c1 (10 µM) | inactive: 0
O=c1[nH]c2ccccc2n1C1CCN(Cc2ccc(-c3[nH]c4cc5ncnc5cc4nc3-c3ccccc3)cc2)CC1 [AKT inhibitor VIII] (2.5 µM) | inactive: 0
CC(=O)Oc1ccc(/C=C/c2cc(OC(C)=O)cc(OC(C)=O)c2)cc1 [Triacetylresveratrol] (10 µM) | inactive: 0
O=C1c2ccccc2C(=O)c2c1cccc2-c1cnn(C2CCNCC2)c1 [PDK4-IN-1 (hydrochloride)] (10 µM) | inactive: 0
CC1C(=O)OC2C(O)C34C5OC(=O)C3(OC3OC(=O)C(O)C34C(C(C)(C)C)C5O)C12O (stereo unspecified) [Ginkgolide C] (10 µM) | inactive: 0
O=Cc1cn(Cc2ccc(Cl)cc2)c2ccccc12 [Oncrasin-1] (10 µM) | inactive: 0
N#CC(C#N)=NNc1cccc(Cl)c1 (2.5 µM) | inactive: 0
CC(C)=CC[C@@H](OC(=O)CC(C)(C)O)C1=CC(=O)c2c(O)ccc(O)c2C1=O [β-Hydroxyisovalerylshikonin] (2.5 µM) | inactive: 0
O=c1ccc2cc(O[C@@H]3O[C@H](CO)[C@@H](O)[C@H](O)[C@H]3O)c(O)cc2o1 [Esculin] (10 µM) | inactive: 0
C[C@H]1CC[C@]2(NC1)O[C@H]1C[C@H]3[C@@H]4CC[C@H]5C[C@@H](O)CC[C@]5(C)[C@H]4CC[C@]3(C)[C@H]1[C@@H]2C [Tomatidine] (2 µM) | inactive: 0
C/C(O)=C(\C#N)C(=O)Nc1cc(Br)ccc1Br (10 µM) | inactive: 0
COc1ccc2c(c[n+](C)c3c4cc5c(cc4ccc23)OCO5)c1OC [Chelerythrine (chloride)] (10 µM) | inactive: 0
COc1ccc2c(c1)[nH]c1c(C)nccc12 [Harmine] (10 µM) | inactive: 0
CCCCCCCCCCCCCCCCOC[C@H](COP(=O)([O-])OCC[N+](C)(C)C)OC(C)=O (10 µM) | inactive: 0
O=C(O)c1sc2cc(Cl)ccc2c1Cl (10 µM) | inactive: 0
C[S+]([O-])/C=C/CCN=C=S (stereo unspecified) [Sulforaphene] (10 µM) | inactive: 0
Cn1cc(C2=C(c3cn(C4CCN(Cc5ccccn5)CC4)c4ccccc34)C(=O)NC2=O)c2ccccc21 [Enzastaurin] (10 µM) | inactive: 0
CCN1CCN(C(=O)Cc2ccc(Nc3ncc(F)c(Nc4ccc(C(=O)Nc5ccccc5Cl)cc4)n3)cc2)CC1 (2.5 µM) | inactive: 0
Cc1n[nH]cc1-c1cc2nc([C@@H]3CC4CCN3CC4)[nH]c(=O)c2s1 [Simurosertib] (2.5 µM) | inactive: 0
O=C(N[C@@H](COc1ccc2[nH]c(=O)[nH]c2c1)c1ccccc1)c1cccn(Cc2ccc(F)c(F)c2)c1=O (2.5 µM) | inactive: 0
CCOC(=O)c1c(/C(C#N)=C\N)c2ccc(Cl)c(Cl)c2n1C (10 µM) | inactive: 0
C[C@H](CCC(=O)O)C[C@H](C)C[C@H](C)C(=O)/C=C(\O)[C@H](C)C[C@H](C)C/C=C/[C@@H](C)[C@@H](O)[C@@H](C)[C@@H](O)C[C@@H]1CC[C@@](C)([C@H]2CC[C@@](C)([C@@H](C)O)O2)O1 [Ionomycin (calcium)] (2.5 µM) | inactive: 0
CC(C)(C)c1cc(C=C(C#N)C#N)cc(Br)c1O (2.5 µM) | inactive: 0
C=CC(=O)N[C@H]1C=C(C)c2c(-c3cnc4ccccc4c3)c3c(N)ncnc3n2C1 (10 µM) | inactive: 0
COC[C@H]1OC(=O)c2coc3c2[C@@]1(C)C1=C(C3=O)[C@@H]2CCC(=O)[C@@]2(C)C[C@H]1OC(C)=O [Wortmannin] (2.5 µM) | inactive: 0
CC(=O)c1c(O)c(C)c(O)c(Cc2c(O)c3c(c(C(=O)/C=C/c4ccccc4)c2O)OC(C)(C)C=C3)c1O [Rottlerin] (2 µM) | inactive: 0
NCCc1cn(S(=O)(=O)c2c(Cl)nc3sccn23)c2ccccc12 (10 µM) | inactive: 0

— the supplement of paper PMC12823440, “Inhibitors supercharge kinase turnover through native proteolytic circuits” (Nature, 2025)
